Reference: article PMC3968158
Results are given in words; binding and its absence hold for the method and conditions named. Binding seen in cells or lysates may run through a third protein. Some entries that bind do so weakly or less than the wild type.

Amino acid sequences for entries named in this document (tags omitted). A change or cut given only in a name is not applied to a line headed by its entry. Residues count along the entry.
UniProt P46108, residues 1-124: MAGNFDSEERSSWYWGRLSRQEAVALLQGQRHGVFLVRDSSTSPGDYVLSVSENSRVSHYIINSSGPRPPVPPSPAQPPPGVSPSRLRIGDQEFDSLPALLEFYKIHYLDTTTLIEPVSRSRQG
UniProt P46109, residues 9-108: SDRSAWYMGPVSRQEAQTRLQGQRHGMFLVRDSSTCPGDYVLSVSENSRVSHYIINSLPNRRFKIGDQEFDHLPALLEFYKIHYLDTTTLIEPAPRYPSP
UniProt B7UM99: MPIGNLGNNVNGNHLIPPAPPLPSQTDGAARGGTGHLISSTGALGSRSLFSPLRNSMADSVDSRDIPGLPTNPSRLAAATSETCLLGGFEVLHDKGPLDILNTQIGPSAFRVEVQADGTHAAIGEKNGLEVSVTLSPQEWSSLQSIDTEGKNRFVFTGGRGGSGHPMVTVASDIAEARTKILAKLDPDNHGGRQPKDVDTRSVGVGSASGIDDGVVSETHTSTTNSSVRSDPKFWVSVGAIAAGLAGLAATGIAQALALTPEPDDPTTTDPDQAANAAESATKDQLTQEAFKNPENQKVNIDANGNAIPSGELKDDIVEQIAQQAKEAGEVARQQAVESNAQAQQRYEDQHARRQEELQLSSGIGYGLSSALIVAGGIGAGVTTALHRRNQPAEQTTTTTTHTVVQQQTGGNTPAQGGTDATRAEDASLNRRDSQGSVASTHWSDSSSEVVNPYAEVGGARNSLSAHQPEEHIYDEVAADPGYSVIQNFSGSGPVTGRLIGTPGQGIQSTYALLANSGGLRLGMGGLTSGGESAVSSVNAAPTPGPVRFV

Tests used:
[1] = target: GST-tagged SH2 domain of CrkII (residues 1-124) (UniProt P46108); assay: pull-down; GST fusion proteins on GSH beads incubated 5 h at 4°C with 150 μl lysate (modified RIPA buffer) of HeLa cells infected with preactivated EPEC (MOI 180, 1 or 2 h; MOI 150, 2 h for Δtir + ptir or ptirY474F); washed four times; WB with anti-Tir and anti-phosphotyrosine antibodies; only the target purified
[2] = target: GST-tagged SH2 domain of CrkL (residues 9-108) (UniProt P46109); assay: as above
[3] = target: Tir (translocated intimin receptor) of enteropathogenic Escherichia coli E2348/69, tyrosine-phosphorylated in infected HeLa cells (enteropathogenic Escherichia coli (EPEC) E2348/69) (UniProt B7UM99); assay: pull-down; competitive pull-down: increasing amounts of soluble purified CrkII SH2 domain added to lysates of EPEC-infected HeLa cells (2 h, 4°C) before pull-down of Tir with GST-SH2 Nck; binding to Tir read as loss of Tir from the Nck SH2 beads; only the binder purified

With “Tir (translocated intimin receptor) of enteropathogenic Escherichia coli E2348/69, tyrosine-phosphorylated in infected HeLa cells (from UniProt B7UM99 1-550)” the binding [1] was “binds” and the binding [2] was “binds”.
For “Recombinant soluble CrkII SH2 domain excised from GST-SH2 CrkII with PreScission protease (from UniProt P46108-1 1-124) (domain or fragment)”, the binding [3] was “binds”.
